Data taken from patent US20120121608A1 (CALIFORNIA INSTITUTE OF TECHNOLOGY, published 2012).
These are yes or no findings as the source states them, for the method shown. Some entries that bind do so weakly or less than the wild type.

Protein sequences, listed by entry. Tags and fused reporters are not part of them. Residues count along the entry.
UniProt P19438, residues 235-455: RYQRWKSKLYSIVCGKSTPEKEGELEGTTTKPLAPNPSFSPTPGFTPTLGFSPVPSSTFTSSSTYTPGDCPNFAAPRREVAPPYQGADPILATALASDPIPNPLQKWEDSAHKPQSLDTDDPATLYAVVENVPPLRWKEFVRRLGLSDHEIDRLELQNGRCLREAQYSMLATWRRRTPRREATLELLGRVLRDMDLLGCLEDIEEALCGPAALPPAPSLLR
UniProt Q60749: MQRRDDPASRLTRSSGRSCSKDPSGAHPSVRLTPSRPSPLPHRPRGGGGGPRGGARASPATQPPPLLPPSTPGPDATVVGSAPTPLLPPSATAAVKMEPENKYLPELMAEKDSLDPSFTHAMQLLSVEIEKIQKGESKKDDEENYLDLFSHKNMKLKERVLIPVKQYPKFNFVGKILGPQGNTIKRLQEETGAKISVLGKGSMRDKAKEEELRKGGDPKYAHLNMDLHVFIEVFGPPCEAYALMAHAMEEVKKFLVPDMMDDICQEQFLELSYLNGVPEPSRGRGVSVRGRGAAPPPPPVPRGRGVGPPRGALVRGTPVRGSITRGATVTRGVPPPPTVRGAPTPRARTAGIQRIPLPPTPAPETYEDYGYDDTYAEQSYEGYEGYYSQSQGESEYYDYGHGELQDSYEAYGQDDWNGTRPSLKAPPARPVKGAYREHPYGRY

Legend:
[1] = molecular target: HIS-tagged human TNF receptor intracellular domain (TNFRicd) (human) (UniProt P19438); test: in vitro binding assay of recombinant proteins (FIG. 15A)
[2] = molecular target: HIS-tagged human TNF receptor intracellular domain (TNFRicd) (human) (UniProt P19438); test: in vitro binding assay of recombinant proteins (FIG. 8E)

Substance: recombinant GST-tagged mouse Sam68 (from UniProt Q60749 1-443)
- binding [1]: binds
- binding [2]: binds
